PMC8814081
These are yes or no findings as the source states them, for the method shown. Binding seen in cells or lysates may run through a third protein. Some results given as binding are weak or reduced against the parent protein; the word gives no strength. For some of these results: Where a sequence is shown, tags or fusion partners need not be part of it.

Amino acid sequences for entries named in this document (tags omitted).
UniProt P29466: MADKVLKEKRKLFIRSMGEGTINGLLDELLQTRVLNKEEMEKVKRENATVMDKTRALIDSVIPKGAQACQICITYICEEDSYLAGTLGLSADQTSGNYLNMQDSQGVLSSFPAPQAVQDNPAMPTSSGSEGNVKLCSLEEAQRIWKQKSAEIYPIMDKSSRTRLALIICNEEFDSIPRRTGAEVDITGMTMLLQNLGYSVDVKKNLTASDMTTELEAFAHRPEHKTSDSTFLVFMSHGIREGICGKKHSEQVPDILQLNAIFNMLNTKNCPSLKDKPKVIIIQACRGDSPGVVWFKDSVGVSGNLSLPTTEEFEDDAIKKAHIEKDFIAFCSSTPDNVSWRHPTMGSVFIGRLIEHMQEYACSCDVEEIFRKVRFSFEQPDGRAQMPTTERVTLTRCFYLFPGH
UniProt Q86TM6: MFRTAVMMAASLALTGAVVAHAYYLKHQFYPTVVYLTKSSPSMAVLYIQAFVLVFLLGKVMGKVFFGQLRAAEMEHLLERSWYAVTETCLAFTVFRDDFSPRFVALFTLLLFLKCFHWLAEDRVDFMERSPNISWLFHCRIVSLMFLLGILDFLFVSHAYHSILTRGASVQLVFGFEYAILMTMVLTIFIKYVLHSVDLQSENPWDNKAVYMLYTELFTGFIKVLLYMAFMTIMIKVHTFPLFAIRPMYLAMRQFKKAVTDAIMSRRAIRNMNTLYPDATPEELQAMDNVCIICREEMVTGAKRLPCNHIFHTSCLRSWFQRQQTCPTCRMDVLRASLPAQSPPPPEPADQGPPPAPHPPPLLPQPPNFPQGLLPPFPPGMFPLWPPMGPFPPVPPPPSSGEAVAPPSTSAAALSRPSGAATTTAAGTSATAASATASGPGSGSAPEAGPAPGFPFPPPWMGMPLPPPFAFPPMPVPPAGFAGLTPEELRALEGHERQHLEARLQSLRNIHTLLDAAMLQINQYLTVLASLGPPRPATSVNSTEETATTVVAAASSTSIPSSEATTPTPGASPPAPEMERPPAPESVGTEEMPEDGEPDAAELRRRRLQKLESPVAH

Experiments:
[1] = biological target: T1, Flag-human GSDMD (p3 × Flag-hGSDMD-FL) (human) (UniProt P57764); assay: co-IP; HEK293T cells co-transfected; lysates incubated with anti-Flag beads at 4 °C, washed with cold TBS; immunoblot with anti-Myc and anti-Flag
T1 sequence: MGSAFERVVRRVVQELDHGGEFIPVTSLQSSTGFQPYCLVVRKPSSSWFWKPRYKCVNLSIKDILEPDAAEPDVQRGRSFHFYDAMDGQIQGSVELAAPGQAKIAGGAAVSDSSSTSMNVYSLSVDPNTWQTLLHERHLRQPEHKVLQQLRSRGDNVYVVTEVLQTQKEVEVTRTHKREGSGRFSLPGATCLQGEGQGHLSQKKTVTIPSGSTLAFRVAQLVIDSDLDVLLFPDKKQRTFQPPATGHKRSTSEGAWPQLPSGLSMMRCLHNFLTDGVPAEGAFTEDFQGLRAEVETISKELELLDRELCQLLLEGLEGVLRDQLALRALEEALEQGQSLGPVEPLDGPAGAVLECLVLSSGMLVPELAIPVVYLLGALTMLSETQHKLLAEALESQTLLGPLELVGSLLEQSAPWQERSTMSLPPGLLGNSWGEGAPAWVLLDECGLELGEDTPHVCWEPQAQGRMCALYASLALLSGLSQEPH

[2] = biological target: p3 × Flag-Caspase-1 (human) (UniProt P29466); assay: as above
[3] = biological target: T2, p3 × Flag-Caspase-4 (human) (UniProt P49662); assay: as above
T2 sequence: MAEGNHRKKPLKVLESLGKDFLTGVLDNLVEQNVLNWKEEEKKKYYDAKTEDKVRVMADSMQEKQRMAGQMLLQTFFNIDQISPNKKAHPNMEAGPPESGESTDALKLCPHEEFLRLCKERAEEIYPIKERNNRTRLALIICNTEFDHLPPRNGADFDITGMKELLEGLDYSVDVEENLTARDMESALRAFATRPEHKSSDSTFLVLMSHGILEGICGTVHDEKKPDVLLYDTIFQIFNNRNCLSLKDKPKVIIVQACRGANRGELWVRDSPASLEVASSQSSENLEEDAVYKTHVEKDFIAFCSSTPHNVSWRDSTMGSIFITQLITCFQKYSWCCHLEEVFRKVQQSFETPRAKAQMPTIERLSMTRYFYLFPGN

[4] = biological target: T3, endogenous GSDMD (THP-1 cells) (human (endogenous in THP-1)) (UniProt P57764); assay: co-IP; endogenous proteins in THP-1 cells; immunoprecipitation with anti-SYVN1 or anti-GSDMD antibody, immunoblot with anti-SYVN1 and anti-GSDMD
T3 sequence: T1 sequence

In the case of “SYVN1-Myc (pcDNA3.1-SYVN1-Myc) (from UniProt Q86TM6 1-617) (enzyme)”, the binding [1] is reported as “binds”, the binding [2] is reported as “no binding” and the binding [3] is reported as “no binding”.

For “endogenous SYVN1 (THP-1 cells) (from UniProt Q86TM6 1-617) (enzyme)”, the binding [4] was “binds”.
